For 3 molecules, binding results are on record in publication PMC4335056.

Assay [1] deals with T1, TwinkleFLAG (mtDNA helicase Twinkle with a FLAG tag at its C-terminus), Q96RR1.
T1 chain: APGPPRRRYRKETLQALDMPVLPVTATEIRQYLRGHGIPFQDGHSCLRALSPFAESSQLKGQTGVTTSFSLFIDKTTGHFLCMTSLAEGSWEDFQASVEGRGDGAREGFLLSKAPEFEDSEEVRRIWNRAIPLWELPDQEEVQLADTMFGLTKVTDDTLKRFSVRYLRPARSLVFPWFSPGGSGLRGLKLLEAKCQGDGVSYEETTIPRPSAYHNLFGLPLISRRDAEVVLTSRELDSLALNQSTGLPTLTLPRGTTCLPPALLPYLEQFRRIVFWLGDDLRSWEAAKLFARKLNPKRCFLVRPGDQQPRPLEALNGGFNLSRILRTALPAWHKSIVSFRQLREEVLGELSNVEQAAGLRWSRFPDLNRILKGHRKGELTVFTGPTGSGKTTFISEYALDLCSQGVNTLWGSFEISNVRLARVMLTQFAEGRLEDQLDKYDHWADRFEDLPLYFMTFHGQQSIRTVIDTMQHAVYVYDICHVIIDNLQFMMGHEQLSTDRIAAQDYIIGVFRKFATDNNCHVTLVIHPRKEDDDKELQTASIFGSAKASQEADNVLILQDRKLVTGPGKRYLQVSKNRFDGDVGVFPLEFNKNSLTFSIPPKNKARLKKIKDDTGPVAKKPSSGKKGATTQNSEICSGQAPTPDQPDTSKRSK
Description: cross-linking + co-IP; whole cells cross-linked with 1% formaldehyde for 10 min at RT, lysed, TwinkleFLAG captured on FLAG resin, eluted with 3xFLAG peptide, eluates analysed by Western blot; mtDNA-containing HEK293 Flp-In T-Rex cells; controls without cross-linking and with mtLucFLAG. Particulars: remark: other sources report otherwise.

Assay [2] has as its target T2, TwinkleFLAG (mtDNA helicase Twinkle with a FLAG tag at its C-terminus) (UniProt Q96RR1).
T2 sequence: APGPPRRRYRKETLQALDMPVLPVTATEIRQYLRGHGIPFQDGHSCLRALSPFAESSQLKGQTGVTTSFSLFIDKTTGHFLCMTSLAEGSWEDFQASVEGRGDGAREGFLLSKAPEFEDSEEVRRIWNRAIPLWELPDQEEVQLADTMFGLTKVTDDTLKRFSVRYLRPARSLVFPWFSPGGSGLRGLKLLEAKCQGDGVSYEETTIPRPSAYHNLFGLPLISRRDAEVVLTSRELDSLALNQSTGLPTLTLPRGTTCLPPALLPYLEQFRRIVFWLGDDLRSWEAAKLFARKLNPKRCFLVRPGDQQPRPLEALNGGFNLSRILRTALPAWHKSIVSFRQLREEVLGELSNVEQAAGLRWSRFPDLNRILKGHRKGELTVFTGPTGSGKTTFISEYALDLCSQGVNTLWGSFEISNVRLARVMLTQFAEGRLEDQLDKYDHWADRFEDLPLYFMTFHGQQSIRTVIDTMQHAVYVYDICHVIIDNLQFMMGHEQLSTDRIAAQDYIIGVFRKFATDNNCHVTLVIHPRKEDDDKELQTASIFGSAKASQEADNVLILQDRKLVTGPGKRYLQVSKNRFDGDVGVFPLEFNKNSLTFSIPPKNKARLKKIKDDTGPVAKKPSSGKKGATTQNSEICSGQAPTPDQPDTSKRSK
Described as above.

Results are given in words; binding and its absence hold for the method and conditions named. Binding seen in cells or lysates may run through a third protein. Some binding calls cover weakened binding; strength is not graded here. Sequences can lack the tags named with a protein.

B1: POLG1 (Polymerase gamma), P54098 1-1239 (enzyme)
chain: MSRLLWRKVAGATVGPGPVPAPGRWVSSSVPASDPSDGQRRRQQQQQQQQQQQQQPQQPQVLSSEGGQLRHNPLDIQMLSRGLHEQIFGQGGEMPGEAAVRRSVEHLQKHGLWGQPAVPLPDVELRLPPLYGDNLDQHFRLLAQKQSLPYLEAANLLLQAQLPPKPPAWAWAEGWTRYGPEGEAVPVAIPEERALVFDVEVCLAEGTCPTLAVAISPSAWYSWCSQRLVEERYSWTSQLSPADLIPLEVPTGASSPTQRDWQEQLVVGHNVSFDRAHIREQYLIQGSRMRFLDTMSMHMAISGLSSFQRSLWIAAKQGKHKVQPPTKQGQKSQRKARRGPAISSWDWLDISSVNSLAEVHRLYVGGPPLEKEPRELFVKGTMKDIRENFQDLMQYCAQDVWATHEVFQQQLPLFLERCPHPVTLAGMLEMGVSYLPVNQNWERYLAEAQGTYEELQREMKKSLMDLANDACQLLSGERYKEDPWLWDLEWDLQEFKQKKAKKVKKEPATASKLPIEGAGAPGDPMDQEDLGPCSEEEEFQQDVMARACLQKLKGTTELLPKRPQHLPGHPGWYRKLCPRLDDPAWTPGPSLLSLQMRVTPKLMALTWDGFPLHYSERHGWGYLVPGRRDNLAKLPTGTTLESAGVVCPYRAIESLYRKHCLEQGKQQLMPQEAGLAEEFLLTDNSAIWQTVEELDYLEVEAEAKMENLRAAVPGQPLALTARGGPKDTQPSYHHGNGPYNDVDIPGCWFFKLPHKDGNSCNVGSPFAKDFLPKMEDGTLQAGPGGASGPRALEINKMISFWRNAHKRISSQMVVWLPRSALPRAVIRHPDYDEEGLYGAILPQVVTAGTITRRAVEPTWLTASNARPDRVGSELKAMVQAPPGYTLVGADVDSQELWIAAVLGDAHFAGMHGCTAFGWMTLQGRKSRGTDLHSKTATTVGISREHAKIFNYGRIYGAGQPFAERLLMQFNHRLTQQEAAEKAQQMYAATKGLRWYRLSDEGEWLVRELNLPVDRTEGGWISLQDLRKVQRETARKSQWKKWEVVAERAWKGGTESEMFNKLESIATSDIPRTPVLGCCISRALEPSAVQEEFMTSRVNWVVQSSAVDYLHLMLVAMKWLFEEFAIDGRFCISIHDEVRYLVREEDRYRAALALQITNLLTRCMFAYKLGLNDLPQSVAFFSAVDIDRCLRKEVTMDCKTPSNPTGMERRYGIPQGEALDIYQIIELTKGSLEKRSQPGP
Consider B1, for which the binding result in assay [1] was “binds”.

B2: Mitochondrial single stranded DNA binding protein (mtSSB) (protein, UniProt Q04837 17-148)
chain: ESETTTSLVLERSLNRVHLLGRVGQDPVLRQVEGKNPVTIFSLATNEMWRSGDSEVYQLGDVSQKTTWHRISVFRPGLRDVAYQYVKKGSRIYLEGKIDYGEYMDKNNVRRQATTIIADNIIFLSDQTKEKE
With B2, in assay [2], the binding result was “binds”.

B3: mitochondrial transcription factor A (TFAM) (protein, UniProt Q00059 43-246)
chain: SSVLASCPKKPVSSYLRFSKEQLPIFKAQNPDAKTTELIRRIAQRWRELPDSKKKIYQDAYRAEWQVYKEEISRFKEQLTPSQIMSLEKEIMDKHLKRKAMTKKKELTLLGKPKRPRSAYNVYVAERFQEAKGDSPQEKLKTVKENWKNLSDSEKELYIQHAKEDETRYHNEMKSWEEQMIEVGRKDLLRRTIKKQRKYGAEEC
As to B3, the binding entry in assay [2] is given as “binds”.
